The source of these data is paper PMC7099064.

Amino acid sequences for entries named in this document (tags omitted).
UniProt Q13526: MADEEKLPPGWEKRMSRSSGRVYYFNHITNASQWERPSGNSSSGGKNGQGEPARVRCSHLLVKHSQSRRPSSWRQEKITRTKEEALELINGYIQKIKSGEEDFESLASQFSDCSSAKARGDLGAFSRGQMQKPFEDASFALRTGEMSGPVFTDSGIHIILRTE
UniProt Q9QUR7: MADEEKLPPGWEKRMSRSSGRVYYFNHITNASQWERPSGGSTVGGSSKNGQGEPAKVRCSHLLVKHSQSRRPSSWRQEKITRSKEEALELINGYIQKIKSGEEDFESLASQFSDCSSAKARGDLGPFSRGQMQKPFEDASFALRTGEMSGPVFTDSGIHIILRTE
UniProt Q9Z218: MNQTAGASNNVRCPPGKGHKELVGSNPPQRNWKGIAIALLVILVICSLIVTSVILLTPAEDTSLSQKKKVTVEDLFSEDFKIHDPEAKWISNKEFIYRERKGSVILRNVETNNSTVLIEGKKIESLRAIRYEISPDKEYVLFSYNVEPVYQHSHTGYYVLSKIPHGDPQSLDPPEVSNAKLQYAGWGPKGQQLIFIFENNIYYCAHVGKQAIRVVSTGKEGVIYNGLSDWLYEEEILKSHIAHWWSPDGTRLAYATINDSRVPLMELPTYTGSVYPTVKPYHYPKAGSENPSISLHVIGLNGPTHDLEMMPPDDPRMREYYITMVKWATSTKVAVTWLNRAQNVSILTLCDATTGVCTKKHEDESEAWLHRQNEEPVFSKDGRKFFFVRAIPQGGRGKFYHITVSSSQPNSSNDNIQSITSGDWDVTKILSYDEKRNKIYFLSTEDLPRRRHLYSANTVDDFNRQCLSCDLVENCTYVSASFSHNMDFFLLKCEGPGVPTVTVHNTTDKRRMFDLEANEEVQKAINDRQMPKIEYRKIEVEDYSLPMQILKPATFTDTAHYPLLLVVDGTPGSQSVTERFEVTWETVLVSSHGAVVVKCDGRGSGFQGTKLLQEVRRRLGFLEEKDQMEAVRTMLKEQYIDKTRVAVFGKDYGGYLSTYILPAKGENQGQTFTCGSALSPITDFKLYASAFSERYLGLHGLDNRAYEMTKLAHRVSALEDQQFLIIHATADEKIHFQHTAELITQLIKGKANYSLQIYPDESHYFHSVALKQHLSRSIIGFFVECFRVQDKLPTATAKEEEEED

Results are given in words; binding and its absence hold for the method and conditions named. Binding seen in cells or lysates may run through a third protein. Some binding calls cover weakened binding; strength is not graded here.

In test [1] the target is T1, Kv4.1 (UniProt Q9NSA2).
T1 sequence: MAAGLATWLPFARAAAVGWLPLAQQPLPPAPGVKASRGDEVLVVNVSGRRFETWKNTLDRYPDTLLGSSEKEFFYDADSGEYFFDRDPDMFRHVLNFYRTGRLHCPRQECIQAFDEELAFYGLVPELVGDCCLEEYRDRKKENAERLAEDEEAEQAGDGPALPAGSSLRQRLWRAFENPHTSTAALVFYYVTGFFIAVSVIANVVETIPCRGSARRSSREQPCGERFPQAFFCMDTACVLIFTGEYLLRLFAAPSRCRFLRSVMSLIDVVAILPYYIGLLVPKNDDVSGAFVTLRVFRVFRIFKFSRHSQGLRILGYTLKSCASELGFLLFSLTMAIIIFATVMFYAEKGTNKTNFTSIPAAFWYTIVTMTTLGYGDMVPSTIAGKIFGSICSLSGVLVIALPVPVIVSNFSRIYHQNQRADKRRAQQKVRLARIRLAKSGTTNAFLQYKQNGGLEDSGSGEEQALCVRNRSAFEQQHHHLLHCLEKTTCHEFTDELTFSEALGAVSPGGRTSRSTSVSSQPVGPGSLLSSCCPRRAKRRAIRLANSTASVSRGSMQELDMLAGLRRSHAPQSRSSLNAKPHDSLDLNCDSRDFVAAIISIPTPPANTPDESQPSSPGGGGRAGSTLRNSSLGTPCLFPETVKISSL
Description: co-IP; Pin1 with Kv4.1, Kv4.2, Kv4.3 and Kv3.4 (Supplementary Fig. 2c); constructs and cells not shown.

The target in test [2] is T2, Kv4.3 (UniProt Q9UK17).
T2 sequence: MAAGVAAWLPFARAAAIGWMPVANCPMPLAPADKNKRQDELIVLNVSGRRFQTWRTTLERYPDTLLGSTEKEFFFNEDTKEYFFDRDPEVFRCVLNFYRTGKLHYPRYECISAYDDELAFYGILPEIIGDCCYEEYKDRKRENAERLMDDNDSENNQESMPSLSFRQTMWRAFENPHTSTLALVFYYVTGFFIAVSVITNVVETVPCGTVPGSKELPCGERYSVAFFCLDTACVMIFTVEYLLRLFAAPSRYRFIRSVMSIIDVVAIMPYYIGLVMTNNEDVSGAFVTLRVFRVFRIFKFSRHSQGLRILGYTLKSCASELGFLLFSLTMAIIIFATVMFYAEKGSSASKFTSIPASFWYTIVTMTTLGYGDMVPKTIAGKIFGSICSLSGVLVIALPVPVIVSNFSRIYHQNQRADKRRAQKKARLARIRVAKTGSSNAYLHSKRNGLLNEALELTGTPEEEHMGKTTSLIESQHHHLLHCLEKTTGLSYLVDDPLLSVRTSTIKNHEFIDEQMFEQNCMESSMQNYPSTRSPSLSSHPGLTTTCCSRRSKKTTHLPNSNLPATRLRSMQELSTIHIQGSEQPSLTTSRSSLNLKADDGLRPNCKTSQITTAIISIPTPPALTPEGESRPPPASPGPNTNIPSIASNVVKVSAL
The description is as above.

Test [3] addresses Kv4.2, endogenous in mouse brain and cultured mouse neurons (mouse (endogenous in brain)) (UniProt Q9Z0V2). Briefly: co-IP; mouse forebrain lysates (WT, Kv4.2 KO, Kv4.2TA; with or without PTZ), IP with mouse or rabbit anti-Kv4.2, PBS pH 7.4 with 0.8% Triton X-100, 4 °C, blot for Pin1.
The target of test [4] is T3, Kv4.2 T607A of the knock-in mouse (Kv4.2TA) (mouse (endogenous in brain)) (UniProt Q9Z0V2).
T3 sequence: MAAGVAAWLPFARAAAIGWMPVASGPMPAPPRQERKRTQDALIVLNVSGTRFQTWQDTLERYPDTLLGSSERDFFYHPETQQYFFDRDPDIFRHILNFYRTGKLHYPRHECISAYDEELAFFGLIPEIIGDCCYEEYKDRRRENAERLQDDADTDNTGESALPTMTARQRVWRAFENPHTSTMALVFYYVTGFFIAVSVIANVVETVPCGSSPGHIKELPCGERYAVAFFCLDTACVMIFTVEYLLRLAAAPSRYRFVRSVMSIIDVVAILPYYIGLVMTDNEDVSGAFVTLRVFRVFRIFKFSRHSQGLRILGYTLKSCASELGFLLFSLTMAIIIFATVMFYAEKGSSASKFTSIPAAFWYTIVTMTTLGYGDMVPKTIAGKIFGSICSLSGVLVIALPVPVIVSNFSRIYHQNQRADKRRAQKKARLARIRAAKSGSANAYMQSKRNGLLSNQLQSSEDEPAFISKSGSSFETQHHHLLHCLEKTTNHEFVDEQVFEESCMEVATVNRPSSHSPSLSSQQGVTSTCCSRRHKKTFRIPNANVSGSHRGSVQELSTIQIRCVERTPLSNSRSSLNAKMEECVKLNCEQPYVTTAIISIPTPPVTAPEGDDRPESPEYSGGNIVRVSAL
Description: co-IP; mouse forebrain lysates (WT or Kv4.2TA; with or without PTZ, SB203580, SL327, juglone), IP with anti-Kv4.2 (NeuroMab 75-016), PBS pH 7.4 with 1% Triton X-100 and 0.2% Chaps, 4 °C, blot for DPP6.

As for “peptidyl-prolyl cis-trans isomerase NIMA-interacting 1 (Pin1), as used in the experiments of Supplementary Fig. 2 (from UniProt Q13526 1-163) (enzyme)”, the binding entry in test [1] and in test [2] was “binds” throughout.

Turning to “peptidyl-prolyl cis-trans isomerase NIMA-interacting 1 (Pin1), endogenous in mouse brain (from UniProt Q9QUR7 1-165) (enzyme)”, the binding result in test [3] is listed as “binds”.

On to “dipeptidyl peptidase 6 (DPP6), endogenous in mouse brain and cultured mouse neurons (from UniProt Q9Z218 1-804)”, for which the binding entry in test [4] is on record as “binds”.
